Measured values: patent publication US20240335465A1 (University of Virginia Patent Foundation, priority 2021, published 2024)
No constants are given. Whether binding was seen depends on the method and setting. Binding seen in cells or lysates may run through a third protein. Some entries that bind do so weakly or less than the wild type.

Amino acid sequences for entries named in this document (tags omitted). Residues count along the entry.
UniProt Q13315, residues 2-3056: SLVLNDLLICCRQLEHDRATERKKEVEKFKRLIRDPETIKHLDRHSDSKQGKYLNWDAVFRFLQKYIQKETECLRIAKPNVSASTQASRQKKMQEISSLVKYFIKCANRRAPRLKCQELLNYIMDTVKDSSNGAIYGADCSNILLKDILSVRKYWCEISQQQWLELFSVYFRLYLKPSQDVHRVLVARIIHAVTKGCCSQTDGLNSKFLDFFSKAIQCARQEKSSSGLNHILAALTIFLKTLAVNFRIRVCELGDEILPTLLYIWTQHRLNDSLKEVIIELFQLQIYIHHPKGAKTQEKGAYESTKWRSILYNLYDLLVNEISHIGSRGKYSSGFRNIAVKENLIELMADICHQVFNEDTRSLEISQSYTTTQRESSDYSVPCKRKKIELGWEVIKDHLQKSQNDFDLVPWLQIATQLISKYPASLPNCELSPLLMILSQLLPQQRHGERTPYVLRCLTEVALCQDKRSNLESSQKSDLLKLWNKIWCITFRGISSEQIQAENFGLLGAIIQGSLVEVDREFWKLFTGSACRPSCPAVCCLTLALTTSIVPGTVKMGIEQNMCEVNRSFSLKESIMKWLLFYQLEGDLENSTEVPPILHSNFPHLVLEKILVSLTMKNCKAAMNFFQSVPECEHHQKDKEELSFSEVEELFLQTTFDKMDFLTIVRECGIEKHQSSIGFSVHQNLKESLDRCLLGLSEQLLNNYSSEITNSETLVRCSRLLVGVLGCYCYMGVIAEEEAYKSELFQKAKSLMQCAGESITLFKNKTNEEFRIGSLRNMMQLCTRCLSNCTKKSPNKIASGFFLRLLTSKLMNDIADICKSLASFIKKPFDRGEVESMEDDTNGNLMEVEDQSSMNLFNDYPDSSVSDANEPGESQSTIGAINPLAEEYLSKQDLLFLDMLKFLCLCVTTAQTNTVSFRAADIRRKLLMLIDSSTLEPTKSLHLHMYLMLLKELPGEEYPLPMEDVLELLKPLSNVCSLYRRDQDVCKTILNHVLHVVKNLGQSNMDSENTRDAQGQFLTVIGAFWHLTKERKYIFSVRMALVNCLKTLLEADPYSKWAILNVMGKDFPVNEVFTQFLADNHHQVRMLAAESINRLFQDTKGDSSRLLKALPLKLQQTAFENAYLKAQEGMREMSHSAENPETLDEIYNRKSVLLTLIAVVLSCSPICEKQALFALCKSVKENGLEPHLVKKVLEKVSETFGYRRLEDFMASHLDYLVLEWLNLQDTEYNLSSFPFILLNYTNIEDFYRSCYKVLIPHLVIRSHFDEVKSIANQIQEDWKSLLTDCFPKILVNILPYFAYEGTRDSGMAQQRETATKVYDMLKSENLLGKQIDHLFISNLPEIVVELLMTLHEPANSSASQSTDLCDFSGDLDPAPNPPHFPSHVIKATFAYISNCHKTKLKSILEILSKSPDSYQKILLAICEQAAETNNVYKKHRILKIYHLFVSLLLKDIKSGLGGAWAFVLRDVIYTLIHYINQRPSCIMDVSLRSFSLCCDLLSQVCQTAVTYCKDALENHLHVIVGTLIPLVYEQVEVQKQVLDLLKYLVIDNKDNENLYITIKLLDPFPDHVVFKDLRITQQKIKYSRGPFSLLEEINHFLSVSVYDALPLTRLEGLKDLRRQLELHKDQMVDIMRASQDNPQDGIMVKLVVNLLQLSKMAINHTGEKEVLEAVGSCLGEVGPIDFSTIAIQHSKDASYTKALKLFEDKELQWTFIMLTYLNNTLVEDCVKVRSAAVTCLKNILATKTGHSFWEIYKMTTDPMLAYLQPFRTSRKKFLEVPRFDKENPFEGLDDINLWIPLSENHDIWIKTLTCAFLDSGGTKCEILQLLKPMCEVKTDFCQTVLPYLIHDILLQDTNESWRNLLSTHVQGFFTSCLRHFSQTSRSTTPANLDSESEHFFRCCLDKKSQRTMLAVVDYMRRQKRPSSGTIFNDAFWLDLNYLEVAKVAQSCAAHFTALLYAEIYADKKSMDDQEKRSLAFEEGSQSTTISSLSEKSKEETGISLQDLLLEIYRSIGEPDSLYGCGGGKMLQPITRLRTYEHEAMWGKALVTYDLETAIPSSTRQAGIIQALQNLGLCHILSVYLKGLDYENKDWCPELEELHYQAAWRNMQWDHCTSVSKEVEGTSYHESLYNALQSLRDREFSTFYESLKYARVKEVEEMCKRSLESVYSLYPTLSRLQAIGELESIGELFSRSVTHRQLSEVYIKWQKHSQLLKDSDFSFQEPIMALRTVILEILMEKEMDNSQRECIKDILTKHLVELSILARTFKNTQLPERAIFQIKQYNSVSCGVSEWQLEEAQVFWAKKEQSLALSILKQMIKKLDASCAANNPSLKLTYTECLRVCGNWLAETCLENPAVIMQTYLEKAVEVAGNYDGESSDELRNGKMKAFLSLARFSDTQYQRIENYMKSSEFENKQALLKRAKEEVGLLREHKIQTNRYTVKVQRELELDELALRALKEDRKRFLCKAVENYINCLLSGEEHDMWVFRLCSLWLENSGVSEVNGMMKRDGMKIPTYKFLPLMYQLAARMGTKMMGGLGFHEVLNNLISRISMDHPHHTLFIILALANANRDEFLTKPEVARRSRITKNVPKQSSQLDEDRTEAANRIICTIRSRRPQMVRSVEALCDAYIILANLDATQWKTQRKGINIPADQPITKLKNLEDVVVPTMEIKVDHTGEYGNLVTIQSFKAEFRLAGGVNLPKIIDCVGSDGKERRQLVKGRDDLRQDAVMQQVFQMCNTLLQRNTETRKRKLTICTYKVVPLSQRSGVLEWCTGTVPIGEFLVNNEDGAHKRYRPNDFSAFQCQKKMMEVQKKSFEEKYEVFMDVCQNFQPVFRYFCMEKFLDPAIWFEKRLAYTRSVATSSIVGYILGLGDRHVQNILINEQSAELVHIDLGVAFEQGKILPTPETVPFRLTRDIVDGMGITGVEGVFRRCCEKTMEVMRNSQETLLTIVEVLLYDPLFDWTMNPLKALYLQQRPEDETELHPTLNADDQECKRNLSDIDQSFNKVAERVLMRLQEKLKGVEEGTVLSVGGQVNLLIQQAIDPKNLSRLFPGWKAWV

Columns and labels:
[1] = molecular target: endogenous ATM immunoprecipitated from cells of FIG. 5I (UniProt Q13315); assay: co-immunoprecipitation: ATM IP from treated cells, immunoblot for TBK1
[2] = molecular target: endogenous ATM immunoprecipitated from cells of FIG. 5I (UniProt Q13315); assay: co-immunoprecipitation: ATM IP from treated cells, immunoblot for TBK1 (FIG. 5I)

binding [1]: binds
binding [2]: binds
B1: endogenous TBK1 in cells of FIG. 5I (enzyme, UniProt Q9UHD2 1-729, looked up)
chain: MQSTSNHLWLLSDILGQGATANVFRGRHKKTGDLFAIKVFNNISFLRPVDVQMREFEVLKKLNHKNIVKLFAIEEETTTRHKVLIMEFCPCGSLYTVLEEPSNAYGLPESEFLIVLRDVVGGMNHLRENGIVHRDIKPGNIMRVIGEDGQSVYKLTDFGAARELEDDEQFVSLYGTEEYLHPDMYERAVLRKDHQKKYGATVDLWSIGVTFYHAATGSLPFRPFEGPRRNKEVMYKIITGKPSGAISGVQKAENGPIDWSGDMPVSCSLSRGLQVLLTPVLANILEADQEKCWGFDQFFAETSDILHRMVIHVFSLQQMTAHKIYIHSYNTATIFHELVYKQTKIISSNQELIYEGRRLVLEPGRLAQHFPKTTEENPIFVVSREPLNTIGLIYEKISLPKVHPRYDLDGDASMAKAITGVVCYACRIASTLLLYQELMRKGIRWLIELIKDDYNETVHKKTEVVITLDFCIRNIEKTVKVYEKLMKINLEAAELGEISDIHTKLLRLSSSQGTIETSLQDIDSRLSPGGSLADAWAHQEGTHPKDRNVEKLQVLLNCMTEIYYQFKKDKAERRLAYNEEQIHKFDKQKLYYHATKAMTHFTDECVKKYEAFLNKSEEWIRKMLHLRKQLLSLTNQCFDIEEEVSKYQEYTNELQETLPQKMFTASSGIKHTMTPIYPSSNTLVEMTLGMKKLKEEMEGVVKELAENNHILERFGSLTMDGGLRNVDCL
